Laboratory results published in the supplement of paper PMC10849652.
The list shows a part of the results.

Chains of the proteins cited; added tags and fusions are not shown. Lines headed by an entry give the natural chain unless they say otherwise; changes in a name come on top.
UniProt Q9NYA1, whole entry, looked up: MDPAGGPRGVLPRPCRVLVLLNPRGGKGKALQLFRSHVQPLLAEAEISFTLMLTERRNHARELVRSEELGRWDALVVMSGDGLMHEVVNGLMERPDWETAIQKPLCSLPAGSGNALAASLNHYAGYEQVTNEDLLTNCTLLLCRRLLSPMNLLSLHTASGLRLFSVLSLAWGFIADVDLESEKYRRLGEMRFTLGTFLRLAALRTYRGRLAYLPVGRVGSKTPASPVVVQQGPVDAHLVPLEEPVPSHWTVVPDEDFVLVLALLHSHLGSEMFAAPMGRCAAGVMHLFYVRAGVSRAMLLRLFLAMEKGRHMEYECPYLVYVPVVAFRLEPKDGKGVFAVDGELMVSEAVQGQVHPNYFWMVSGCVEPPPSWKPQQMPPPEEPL
UniProt P61011: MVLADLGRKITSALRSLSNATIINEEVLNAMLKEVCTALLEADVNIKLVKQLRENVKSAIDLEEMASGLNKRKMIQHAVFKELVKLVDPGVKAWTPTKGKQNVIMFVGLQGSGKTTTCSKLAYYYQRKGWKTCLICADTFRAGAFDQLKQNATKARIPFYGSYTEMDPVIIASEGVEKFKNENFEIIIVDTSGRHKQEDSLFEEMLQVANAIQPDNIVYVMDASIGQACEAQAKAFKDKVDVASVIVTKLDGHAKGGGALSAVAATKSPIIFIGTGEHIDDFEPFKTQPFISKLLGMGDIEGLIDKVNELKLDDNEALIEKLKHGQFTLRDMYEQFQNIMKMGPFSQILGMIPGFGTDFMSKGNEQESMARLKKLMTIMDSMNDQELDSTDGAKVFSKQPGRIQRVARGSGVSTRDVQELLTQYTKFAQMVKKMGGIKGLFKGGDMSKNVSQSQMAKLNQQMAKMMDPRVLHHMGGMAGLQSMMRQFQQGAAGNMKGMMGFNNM
UniProt Q16842: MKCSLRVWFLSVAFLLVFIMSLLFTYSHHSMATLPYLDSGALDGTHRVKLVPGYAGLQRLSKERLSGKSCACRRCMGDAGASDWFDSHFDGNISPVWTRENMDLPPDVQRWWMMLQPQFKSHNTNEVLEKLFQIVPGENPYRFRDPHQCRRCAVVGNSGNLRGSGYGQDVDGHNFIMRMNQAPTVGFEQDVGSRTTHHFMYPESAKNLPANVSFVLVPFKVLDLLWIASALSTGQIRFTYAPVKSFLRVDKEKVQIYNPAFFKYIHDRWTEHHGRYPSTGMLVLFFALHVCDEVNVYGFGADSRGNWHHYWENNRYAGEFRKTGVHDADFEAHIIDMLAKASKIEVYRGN
UniProt Q8N0X7: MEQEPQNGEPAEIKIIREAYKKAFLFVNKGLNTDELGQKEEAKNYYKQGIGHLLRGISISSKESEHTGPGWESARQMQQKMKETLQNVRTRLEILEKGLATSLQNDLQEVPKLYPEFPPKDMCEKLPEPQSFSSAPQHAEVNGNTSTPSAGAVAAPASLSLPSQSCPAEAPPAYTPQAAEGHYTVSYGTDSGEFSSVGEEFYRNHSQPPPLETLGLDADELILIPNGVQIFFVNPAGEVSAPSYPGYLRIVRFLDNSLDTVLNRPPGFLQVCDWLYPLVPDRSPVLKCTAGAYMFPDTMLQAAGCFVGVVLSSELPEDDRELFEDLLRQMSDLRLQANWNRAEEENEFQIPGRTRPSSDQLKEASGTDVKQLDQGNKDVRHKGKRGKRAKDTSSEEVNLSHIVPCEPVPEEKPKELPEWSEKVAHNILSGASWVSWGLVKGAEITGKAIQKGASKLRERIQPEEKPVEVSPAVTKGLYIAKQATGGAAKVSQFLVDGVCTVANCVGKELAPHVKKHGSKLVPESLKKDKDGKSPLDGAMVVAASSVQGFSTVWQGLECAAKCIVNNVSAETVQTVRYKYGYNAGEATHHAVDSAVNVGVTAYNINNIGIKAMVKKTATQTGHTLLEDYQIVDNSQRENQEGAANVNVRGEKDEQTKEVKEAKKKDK
UniProt Q8NEF9: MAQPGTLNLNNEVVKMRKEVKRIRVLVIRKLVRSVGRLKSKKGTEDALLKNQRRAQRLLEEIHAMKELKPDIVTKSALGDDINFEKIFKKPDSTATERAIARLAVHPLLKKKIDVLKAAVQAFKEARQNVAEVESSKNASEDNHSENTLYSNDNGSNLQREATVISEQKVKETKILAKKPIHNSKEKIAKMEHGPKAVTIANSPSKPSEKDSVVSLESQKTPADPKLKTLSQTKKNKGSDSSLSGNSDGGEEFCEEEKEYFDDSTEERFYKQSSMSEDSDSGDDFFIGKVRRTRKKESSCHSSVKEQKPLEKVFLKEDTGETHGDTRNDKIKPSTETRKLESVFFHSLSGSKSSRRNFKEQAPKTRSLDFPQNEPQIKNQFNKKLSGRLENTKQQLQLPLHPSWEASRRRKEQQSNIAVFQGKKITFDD
UniProt P42229: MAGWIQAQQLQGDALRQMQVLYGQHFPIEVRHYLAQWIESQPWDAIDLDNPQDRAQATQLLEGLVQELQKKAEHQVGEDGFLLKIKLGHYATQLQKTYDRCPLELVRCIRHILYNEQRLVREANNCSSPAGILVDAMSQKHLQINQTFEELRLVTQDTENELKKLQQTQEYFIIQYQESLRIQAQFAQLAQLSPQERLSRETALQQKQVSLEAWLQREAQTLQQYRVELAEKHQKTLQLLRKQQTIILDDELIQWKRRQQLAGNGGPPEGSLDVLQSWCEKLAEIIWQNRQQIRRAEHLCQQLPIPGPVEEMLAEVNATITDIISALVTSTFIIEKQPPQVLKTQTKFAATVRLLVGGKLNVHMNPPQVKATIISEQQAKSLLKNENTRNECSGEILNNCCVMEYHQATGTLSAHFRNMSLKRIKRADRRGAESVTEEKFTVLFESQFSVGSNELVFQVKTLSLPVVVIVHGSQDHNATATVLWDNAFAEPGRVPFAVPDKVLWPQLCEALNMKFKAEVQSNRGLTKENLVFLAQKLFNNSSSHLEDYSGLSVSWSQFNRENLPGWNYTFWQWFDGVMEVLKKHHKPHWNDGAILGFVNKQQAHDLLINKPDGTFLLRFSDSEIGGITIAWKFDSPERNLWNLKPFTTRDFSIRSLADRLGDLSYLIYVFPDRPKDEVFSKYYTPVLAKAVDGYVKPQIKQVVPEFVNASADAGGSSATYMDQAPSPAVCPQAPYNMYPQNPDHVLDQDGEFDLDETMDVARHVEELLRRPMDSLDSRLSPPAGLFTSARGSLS
UniProt Q9H254, whole entry, looked up: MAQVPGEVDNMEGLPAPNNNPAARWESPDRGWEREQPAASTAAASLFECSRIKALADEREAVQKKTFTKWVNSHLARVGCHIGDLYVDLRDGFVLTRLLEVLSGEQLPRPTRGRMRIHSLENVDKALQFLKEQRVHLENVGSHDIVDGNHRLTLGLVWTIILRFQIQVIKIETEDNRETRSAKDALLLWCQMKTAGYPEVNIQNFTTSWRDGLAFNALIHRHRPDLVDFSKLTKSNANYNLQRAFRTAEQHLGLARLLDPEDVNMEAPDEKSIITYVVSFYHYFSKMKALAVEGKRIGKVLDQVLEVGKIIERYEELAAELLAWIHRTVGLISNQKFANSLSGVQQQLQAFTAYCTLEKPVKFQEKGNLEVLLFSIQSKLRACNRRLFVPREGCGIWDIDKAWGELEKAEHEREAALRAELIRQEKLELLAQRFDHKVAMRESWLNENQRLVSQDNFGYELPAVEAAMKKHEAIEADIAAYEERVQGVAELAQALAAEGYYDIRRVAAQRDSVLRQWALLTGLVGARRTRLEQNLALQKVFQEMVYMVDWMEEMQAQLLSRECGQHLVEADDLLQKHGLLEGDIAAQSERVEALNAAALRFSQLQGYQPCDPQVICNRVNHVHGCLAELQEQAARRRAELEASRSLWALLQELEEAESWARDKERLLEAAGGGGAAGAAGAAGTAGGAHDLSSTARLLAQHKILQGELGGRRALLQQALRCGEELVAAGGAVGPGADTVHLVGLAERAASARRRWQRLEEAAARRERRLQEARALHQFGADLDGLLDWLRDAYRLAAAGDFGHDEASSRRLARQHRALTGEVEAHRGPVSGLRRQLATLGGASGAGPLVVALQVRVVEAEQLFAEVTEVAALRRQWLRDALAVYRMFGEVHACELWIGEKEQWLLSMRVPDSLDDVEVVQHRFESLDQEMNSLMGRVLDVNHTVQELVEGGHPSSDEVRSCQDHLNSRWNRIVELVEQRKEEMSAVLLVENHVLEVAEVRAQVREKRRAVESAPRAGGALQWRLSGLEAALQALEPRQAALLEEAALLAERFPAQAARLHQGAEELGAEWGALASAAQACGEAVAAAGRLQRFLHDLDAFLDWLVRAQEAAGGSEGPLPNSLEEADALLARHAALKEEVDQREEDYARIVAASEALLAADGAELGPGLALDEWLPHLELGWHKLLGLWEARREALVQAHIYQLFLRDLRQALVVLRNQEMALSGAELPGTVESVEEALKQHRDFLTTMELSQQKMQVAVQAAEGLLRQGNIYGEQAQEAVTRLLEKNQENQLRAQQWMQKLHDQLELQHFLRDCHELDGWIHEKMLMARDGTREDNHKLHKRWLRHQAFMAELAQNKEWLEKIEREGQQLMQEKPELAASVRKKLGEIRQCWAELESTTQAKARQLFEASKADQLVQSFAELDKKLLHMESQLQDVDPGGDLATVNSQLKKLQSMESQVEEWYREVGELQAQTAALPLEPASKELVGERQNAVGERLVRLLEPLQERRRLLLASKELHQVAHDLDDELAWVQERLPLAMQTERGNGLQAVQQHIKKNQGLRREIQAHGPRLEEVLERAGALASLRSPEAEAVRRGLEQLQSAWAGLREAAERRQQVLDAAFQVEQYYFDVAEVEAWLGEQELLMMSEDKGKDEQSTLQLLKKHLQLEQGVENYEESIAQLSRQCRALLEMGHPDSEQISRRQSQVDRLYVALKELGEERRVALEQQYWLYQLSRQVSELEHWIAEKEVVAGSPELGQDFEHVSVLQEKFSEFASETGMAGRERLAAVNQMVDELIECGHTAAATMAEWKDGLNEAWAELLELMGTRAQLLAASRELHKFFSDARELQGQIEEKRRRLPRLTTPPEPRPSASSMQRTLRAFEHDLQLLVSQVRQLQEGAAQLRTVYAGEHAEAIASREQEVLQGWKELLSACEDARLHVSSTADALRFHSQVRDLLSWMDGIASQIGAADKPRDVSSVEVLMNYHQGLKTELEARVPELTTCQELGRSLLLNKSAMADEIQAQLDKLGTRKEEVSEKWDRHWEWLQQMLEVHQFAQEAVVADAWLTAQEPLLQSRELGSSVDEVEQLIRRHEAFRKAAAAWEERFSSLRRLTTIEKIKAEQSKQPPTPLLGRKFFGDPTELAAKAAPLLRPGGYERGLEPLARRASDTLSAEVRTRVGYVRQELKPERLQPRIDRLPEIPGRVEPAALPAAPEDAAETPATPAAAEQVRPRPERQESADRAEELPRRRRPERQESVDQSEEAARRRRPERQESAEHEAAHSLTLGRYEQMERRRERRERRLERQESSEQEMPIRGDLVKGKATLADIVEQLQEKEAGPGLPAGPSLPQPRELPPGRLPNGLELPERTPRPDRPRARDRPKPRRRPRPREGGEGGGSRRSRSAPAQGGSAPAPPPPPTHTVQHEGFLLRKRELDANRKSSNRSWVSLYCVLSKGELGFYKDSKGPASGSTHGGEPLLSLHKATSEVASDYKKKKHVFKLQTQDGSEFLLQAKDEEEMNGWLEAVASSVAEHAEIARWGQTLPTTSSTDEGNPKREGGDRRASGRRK
UniProt P42226: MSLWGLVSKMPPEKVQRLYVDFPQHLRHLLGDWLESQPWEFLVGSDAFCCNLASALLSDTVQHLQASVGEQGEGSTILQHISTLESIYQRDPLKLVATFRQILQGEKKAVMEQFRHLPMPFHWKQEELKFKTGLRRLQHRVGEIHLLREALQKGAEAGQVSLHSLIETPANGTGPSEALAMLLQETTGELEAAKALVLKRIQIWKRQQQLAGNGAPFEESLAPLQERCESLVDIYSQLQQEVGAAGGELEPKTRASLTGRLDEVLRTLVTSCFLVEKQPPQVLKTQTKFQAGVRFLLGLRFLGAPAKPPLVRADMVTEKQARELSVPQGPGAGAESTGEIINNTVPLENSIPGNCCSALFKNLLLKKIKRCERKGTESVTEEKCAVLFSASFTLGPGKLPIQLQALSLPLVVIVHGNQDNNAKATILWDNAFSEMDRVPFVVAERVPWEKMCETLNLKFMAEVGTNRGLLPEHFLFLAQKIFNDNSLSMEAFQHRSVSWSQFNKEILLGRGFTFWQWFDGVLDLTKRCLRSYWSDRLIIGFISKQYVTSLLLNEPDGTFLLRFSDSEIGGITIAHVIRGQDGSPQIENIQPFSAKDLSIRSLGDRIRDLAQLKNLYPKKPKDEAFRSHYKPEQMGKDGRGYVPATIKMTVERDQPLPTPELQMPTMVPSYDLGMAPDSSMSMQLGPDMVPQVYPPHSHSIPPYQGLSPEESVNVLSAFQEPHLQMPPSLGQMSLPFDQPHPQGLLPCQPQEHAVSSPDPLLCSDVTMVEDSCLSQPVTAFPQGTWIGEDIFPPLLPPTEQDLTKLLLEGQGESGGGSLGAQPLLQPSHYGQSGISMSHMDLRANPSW

Compound: Cc1ccc(-n2nc(C(C)(C)C)cc2NC(=O)Nc2ccc(OCCN3CCOCC3)c3ccccc23)cc1 [doramapimod]
Test: log2 fold change, soluble protein after heating vs DMSO (PISA); higher = thermal stabilisation; K562 cells, 10 uM, 30 min; active = over 0.2 and 3.5 SD of the protein, either way, in both replicates (recomputed)
In short: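 Soluble protein was defined as the supernatant after 21,000xg for 90 min. It came from K562 cells at 2×10^6 cells/mL given 10 μM compound for 30 min, heated in aliquots for 3 min across 48°C-58°C, pooled, and extracted in PBS with 0.5% NP-40 at 4°C, and was quantified by TMTpro 16plex LC-MS/MS with equalised channel sums. Thermal stability against control samples, from duplicates, is reported as log2 fold change.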

| Target | log2 fold change |
| --- | --- |
| SPAST (UniProt Q9UBP0) | inactive: -0.078 |
| SPIRE2 (UniProt Q8WWL2) | inactive: 0.12 |
| SPHK1 isoform 2 (UniProt Q9NYA1) | inactive: 0.016 |
| SPPL2A (UniProt Q8TCT8) | inactive: 0.016 |
| SRA1 (UniProt Q9HD15) | inactive: -0.016 |
| STIM1 (UniProt Q13586) | inactive: 0.011 |
| SPTBN1 (UniProt Q01082) | inactive: 0.021 |
| SRSF3 (UniProt P84103) | inactive: -0.019 |
| SPECC1 (UniProt Q5M775) | inactive: 0.137 |
| STAG1 (UniProt Q8WVM7) | inactive: 0.015 |
| SPPL2B (UniProt Q8TCT7) | inactive: 0.01 |
| SRP54 (UniProt P61011) | inactive: 0.027 |
| ST3GAL2 (UniProt Q16842) | inactive: 0 |
| SRSF1 (UniProt Q07955) | inactive: 0.038 |
| STAT1 (UniProt P42224) | inactive: 0.231 |
| STAT5B (UniProt P51692) | inactive: -0.09 |
| ST6GALNAC1 (UniProt Q9NSC7) | inactive: 0.071 |
| STEAP3 isoform 2 (UniProt Q658P3) | inactive: 0.003 |
| SPRYD4 (UniProt Q8WW59) | inactive: 0.015 |
| SRGAP2 (UniProt O75044) | inactive: 0.012 |

Shown with each value named: part of the list above
SRSF3 (UniProt P84103)
  log2 fold change: inactive: -0.019
SPECC1 (UniProt Q5M775)
  log2 fold change: inactive: 0.137
STAG1 (UniProt Q8WVM7)
  log2 fold change: inactive: 0.015

Additional entries:

| Target | log2 fold change |
| --- | --- |
| SRPK2 isoform 2 (UniProt P78362) | inactive: 0.257 |
| SPART (UniProt Q8N0X7) | inactive: 0.014 |
| STK24 (UniProt Q9Y6E0) | inactive: 0.009 |
| STAT3 (UniProt P40763) | inactive: -0.009 |
| SPECC1L (UniProt Q69YQ0) | inactive: 0.048 |
| SSU72 (UniProt Q9NP77) | inactive: -0.034 |
| SPTLC1 (UniProt O15269) | inactive: 0.056 |
| SRFBP1 (UniProt Q8NEF9) | inactive: 0.007 |
| STAU2 (UniProt Q9NUL3) | inactive: 0.122 |
| STAT5A (UniProt P42229) | inactive: -0.047 |
| SRSF4 (UniProt Q08170) | inactive: 0.073 |
| SRP72 (UniProt O76094) | inactive: 0.051 |
| SRSF7 (UniProt Q16629) | inactive: 0.073 |
| SSR4 (UniProt P51571) | inactive: -0.019 |
| SPTBN4 (UniProt Q9H254) | inactive: -0.03 |
| SPATA5L1 (UniProt Q9BVQ7) | inactive: 0.009 |
| SPG11 (UniProt Q96JI7) | inactive: -0.01 |
| STAT6 (UniProt P42226) | inactive: 0.043 |
| STARD9 (UniProt Q9P2P6) | inactive: 0.074 |
| SREK1 isoform 2 (UniProt Q8WXA9) | inactive: -0.027 |
